Source: PMC10432679

Sequences of proteins named here, by UniProt entry; tags and fusion partners are left off. A change or cut given only in a name is not applied to a line headed by its entry.
UniProt Q57W41: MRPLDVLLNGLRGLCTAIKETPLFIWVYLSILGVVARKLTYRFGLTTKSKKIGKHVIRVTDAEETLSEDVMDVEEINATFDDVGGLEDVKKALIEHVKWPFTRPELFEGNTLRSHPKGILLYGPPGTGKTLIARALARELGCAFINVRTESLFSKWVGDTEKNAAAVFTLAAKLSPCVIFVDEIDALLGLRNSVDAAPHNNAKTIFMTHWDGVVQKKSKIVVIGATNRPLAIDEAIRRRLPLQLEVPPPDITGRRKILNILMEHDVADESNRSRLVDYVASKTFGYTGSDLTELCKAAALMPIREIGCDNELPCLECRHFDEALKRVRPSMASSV
UniProt Q386J8: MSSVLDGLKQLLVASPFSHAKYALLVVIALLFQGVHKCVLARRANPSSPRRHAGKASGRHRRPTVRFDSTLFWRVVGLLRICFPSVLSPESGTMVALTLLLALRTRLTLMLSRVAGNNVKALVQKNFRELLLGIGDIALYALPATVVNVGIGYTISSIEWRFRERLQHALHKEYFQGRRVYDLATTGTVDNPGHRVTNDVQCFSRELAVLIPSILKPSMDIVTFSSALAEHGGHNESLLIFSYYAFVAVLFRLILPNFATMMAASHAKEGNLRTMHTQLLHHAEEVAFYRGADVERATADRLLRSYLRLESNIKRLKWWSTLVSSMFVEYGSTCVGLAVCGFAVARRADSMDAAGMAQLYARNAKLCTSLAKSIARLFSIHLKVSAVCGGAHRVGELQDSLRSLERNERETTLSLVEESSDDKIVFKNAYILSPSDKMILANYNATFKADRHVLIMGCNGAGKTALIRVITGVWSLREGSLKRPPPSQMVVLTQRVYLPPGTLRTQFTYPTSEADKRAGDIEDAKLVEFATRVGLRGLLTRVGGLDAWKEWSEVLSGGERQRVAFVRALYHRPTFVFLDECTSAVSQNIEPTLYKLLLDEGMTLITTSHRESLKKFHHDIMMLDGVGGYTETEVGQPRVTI
UniProt Q57ZC7: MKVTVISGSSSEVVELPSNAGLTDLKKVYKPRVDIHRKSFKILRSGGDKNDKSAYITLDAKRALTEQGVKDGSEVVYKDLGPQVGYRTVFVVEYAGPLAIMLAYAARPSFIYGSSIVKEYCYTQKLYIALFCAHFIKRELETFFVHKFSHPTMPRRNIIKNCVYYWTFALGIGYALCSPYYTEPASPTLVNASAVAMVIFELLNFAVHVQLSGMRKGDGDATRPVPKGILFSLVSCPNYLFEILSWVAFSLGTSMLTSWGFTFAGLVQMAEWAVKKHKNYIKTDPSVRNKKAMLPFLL
UniProt Q57Y09: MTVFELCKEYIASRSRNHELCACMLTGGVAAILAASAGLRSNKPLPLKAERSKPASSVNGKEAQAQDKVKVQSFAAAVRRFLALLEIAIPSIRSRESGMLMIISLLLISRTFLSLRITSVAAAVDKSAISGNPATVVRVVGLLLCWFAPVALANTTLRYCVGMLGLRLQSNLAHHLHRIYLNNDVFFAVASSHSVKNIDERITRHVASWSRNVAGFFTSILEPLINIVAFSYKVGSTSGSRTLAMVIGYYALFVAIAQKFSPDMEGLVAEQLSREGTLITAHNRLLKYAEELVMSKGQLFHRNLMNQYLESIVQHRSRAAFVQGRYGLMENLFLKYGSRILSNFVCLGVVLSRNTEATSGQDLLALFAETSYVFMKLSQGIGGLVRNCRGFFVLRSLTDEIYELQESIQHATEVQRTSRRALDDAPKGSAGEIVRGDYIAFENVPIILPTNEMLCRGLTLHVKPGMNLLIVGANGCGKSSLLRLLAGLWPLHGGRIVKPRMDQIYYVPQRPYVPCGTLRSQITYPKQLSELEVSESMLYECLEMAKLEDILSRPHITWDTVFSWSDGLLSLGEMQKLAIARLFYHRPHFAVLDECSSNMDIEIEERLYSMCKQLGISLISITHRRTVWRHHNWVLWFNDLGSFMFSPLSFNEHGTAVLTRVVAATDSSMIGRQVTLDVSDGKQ
UniProt Q585W6: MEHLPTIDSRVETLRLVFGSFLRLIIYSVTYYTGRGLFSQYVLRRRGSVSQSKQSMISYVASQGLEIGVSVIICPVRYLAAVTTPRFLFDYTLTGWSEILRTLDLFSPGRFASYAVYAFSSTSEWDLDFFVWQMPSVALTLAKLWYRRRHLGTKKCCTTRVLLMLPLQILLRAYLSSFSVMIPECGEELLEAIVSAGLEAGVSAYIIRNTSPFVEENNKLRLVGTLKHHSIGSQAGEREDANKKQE
UniProt Q580J2: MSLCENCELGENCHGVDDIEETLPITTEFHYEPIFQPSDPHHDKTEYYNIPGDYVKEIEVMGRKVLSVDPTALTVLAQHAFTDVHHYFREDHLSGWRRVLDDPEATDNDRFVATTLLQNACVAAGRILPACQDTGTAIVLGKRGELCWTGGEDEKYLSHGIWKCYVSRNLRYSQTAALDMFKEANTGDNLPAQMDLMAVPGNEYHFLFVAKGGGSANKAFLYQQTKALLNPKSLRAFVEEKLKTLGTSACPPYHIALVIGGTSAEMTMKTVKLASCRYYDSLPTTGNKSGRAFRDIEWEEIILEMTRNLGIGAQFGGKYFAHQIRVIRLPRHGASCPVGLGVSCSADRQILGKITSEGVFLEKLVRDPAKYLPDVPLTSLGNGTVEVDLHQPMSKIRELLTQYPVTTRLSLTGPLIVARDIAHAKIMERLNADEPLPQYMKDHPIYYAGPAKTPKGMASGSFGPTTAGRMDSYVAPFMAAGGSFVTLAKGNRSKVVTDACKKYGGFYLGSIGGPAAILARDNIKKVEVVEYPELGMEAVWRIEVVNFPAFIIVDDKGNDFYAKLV
UniProt Q57VU5: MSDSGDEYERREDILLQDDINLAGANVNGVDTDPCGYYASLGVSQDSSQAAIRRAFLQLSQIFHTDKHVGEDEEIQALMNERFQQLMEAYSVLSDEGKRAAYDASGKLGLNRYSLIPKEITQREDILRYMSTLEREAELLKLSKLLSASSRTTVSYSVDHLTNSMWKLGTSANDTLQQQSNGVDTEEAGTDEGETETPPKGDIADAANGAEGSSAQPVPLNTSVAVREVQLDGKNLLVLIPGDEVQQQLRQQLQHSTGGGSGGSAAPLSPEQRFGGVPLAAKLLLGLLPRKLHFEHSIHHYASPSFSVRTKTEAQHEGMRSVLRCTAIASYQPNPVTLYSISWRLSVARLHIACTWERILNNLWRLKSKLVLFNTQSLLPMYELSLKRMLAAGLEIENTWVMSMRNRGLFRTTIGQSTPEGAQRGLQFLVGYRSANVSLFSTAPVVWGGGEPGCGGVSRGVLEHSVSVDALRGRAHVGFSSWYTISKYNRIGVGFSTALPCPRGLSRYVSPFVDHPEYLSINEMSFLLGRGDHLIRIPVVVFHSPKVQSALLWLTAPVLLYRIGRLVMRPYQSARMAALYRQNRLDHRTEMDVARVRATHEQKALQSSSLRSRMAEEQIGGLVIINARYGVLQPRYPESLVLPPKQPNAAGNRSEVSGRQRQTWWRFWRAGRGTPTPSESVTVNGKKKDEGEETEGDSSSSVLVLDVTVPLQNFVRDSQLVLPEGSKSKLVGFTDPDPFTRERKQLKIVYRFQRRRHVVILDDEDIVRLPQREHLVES
UniProt Q38CI9: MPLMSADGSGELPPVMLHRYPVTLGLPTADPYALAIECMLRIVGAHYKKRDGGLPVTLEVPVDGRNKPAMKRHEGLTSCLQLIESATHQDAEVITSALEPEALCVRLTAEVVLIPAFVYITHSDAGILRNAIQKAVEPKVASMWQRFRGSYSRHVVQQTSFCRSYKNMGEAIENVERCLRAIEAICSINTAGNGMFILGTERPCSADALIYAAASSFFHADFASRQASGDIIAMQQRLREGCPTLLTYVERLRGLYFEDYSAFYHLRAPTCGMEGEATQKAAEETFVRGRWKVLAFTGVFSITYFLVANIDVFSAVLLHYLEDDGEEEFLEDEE
UniProt Q383C6: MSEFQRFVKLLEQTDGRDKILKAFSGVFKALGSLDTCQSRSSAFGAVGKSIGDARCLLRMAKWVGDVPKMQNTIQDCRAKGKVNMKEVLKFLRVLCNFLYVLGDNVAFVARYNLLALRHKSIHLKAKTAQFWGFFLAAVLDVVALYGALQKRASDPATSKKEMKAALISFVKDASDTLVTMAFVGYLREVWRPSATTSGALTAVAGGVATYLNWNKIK

B1: phosphoglycerate kinase A (protein, UniProt P08891 1-505)
chain: MSTAPNAKNNISLKKSVGDVWPLTAKRVLMRVDFNVPMQNGHITNDYRIRAAIPTIRRVIDQGGICILLSHLGRPRGVSMVAGVRDIRRRYHEAQFHDNKGKTAFFSVLPGEEKVKILAKSSAREEATHISPEVKSGKTMLFARLPEDEKKSLLMQYLNENKDSALPQMSVSAGYEEQYSLRPVAVRLAELLGQHVYFAHDCLDARVEVSRLKRGNVMLLENVRFYSEENGENAEEREAMAKILASYGDVYISDAFGAAHRDSATMTGIPKILGHGAAGYLMEKEISYFAKVLGNPPRPLEAIVGGAKVSEKIQLLDNMKQRIDYLLIGGAMAYTFLKAQGYSIGKSKCEESKLEFARSLLKKAEDRKVQVILPIDHVCHTEFKAVDSPLITEDQNIPEGHMALDIGPKTIEKYVQTIGKCKSAIWNGPMGVFEMVPYSKGTFAIAKAMGRGTQKRGLMSIIGGGESAGAAEAARISHVSTGGGASLELLEGKTLPGVAVLDDKE

Target: in situ C-terminally HA-tagged TbMsp1 (T. brucei) (UniProt Q57W41)
Assay: affinity purification with mass spectrometry; SILAC immunoprecipitation with anti-HA affinity matrix from digitonin-extracted crude mitochondrial fractions solubilised in 1% digitonin, 20 mM Tris-HCl pH 7.4, 100 mM NaCl, 25 mM KCl, 4°C; mixed 29.13 parent cells and cells with in situ tagged TbMsp1-HA; n = 3; done in the presence of pATOM36 and in pATOM36 RNAi-depleted cells

binding, binds:
B1

Target: in situ C-terminally HA-tagged TbMsp1 (T. brucei) (UniProt Q57W41)
Assay: as above
Remark: another data set of the same source

binding, binds:
glycosomal metabolite transporter GAT2 (from UniProt Q386J8)
TbTsc13, endogenous (from UniProt Q57ZC7)
glycosomal metabolite transporter GAT1 (from UniProt Q57Y09)
protein of the mitochondrial OM proteome 31 (POMP31), endogenous (from UniProt Q585W6)
cytosolic fumarate hydratase (Tb927.3.4500) (from UniProt Q580J2)
TbJ31, endogenous (from UniProt Q57VU5)
POMP19, endogenous (from UniProt Q38CI9)
peroxisome biogenesis protein Pex11 (from UniProt Q383C6)

These are yes or no findings as the source states them, for the method shown. Binding seen in cells or lysates may run through a third protein. Here binding means that the protein was enriched with, or labelled near, the bait; the list need not be complete.
